# Patent US20190255086A1, “Compositions and Methods for Treating an Infection” (CMPD Licensing, LLC, priority 2015, published 2019)
# Tested on: Mycoplasma pneumoniae
# Experiment: Expected efficacy of anti-bacterial agents against various bacteria (Tables 5 and 6)
# Settings: Gram: n/a
smiles,measurement,value
O=C(O)c1cn(C2CC2)c2cc(N3CCNCC3)c(F)cc2c1=O [Ciprofloxacin],Efficacy of various antibiotic agents,yes
